Measured values as given in the supplement of paper PMC12067093, “Discovery and optimisation of a covalent ligand for TRIM25 and its application to targeted protein ubiquitination” (Chemical Science, 2025).
The other results are listed elsewhere or left out.

Compound: CC1Cc2ccccc2N1C(=O)C1CCCN(C1)C(=O)CCl (mixture of isomers) [TRIM25 ligand 11 (diastereomer mixture)]
Experiment: probe-labelled cysteine peptide fold change vs DMSO (competition) (log2 fold change); higher = less target engagement (more negative = stronger competition)
Conditions: THP-1, incubation time: 4 h
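Also: competitive chemoproteomic profiling in live THP-1 cells with an iodoacetamide desthiobiotin (IA-DTB) probe, comparing probe-labelled peptide intensities in compound-treated cells against DMSO-treated controls.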

Target	probe-labelled cysteine peptide fold change (10 µM)	probe-labelled cysteine peptide fold change (50 µM)
BAZ1A_Q9NRL2_586_RGGFDATDDACMELR (UniProt Q9NRL2)	0.0933	0.03
BOD1L1_Q8NFC6_285_SEEFSDLPCPVEEIK (UniProt Q8NFC6)	0.0806	0.0982
BAZ1B_Q9UIG0_1393+1395_CSCGSYR (UniProt Q9UIG0)	0.0934	0.07
BAZ1A_Q9NRL2_1195_TVPEGDWFCPECRPK (UniProt Q9NRL2)	0.0397	0.0567
ATXN10_Q9UBB4_165_NEDSQSIVWVHAFPELFLSCLNHPDK (UniProt Q9UBB4)	0.0516	0.192
ATRX_P46100_1844_MTSIQCK (UniProt P46100)	-0.0864	0.0332
ATXN2L_Q8WWM7_135_MLHFLTAVVGSTCDVK (UniProt Q8WWM7)	-0.0311	-0.00568
BAZ2A_Q9UIF9_1697_GDNDEFLLLCDGCDR (UniProt Q9UIF9)	0.284	-0.0807
BAX_Q07812_62_KLSECLK (UniProt Q07812)	-0.00084	0.2
BABAM1_Q9NWV8_222_TILVYSRPPCQPQFSLTEPMK (UniProt Q9NWV8)	0.0584	-0.121
AVL9_Q8NBF6_409_GYLCLPYMALQQHHLLSDVTVR (UniProt Q8NBF6)	0.0355	0.118
BMP2K_Q9NSY1_197_VENILLNDGGNYVLCDFGSATNK (UniProt Q9NSY1)	-0.349	-0.141
BMP2K_Q9NSY1_912_KVNVQECHAVGPEAHTIPGYPK (UniProt Q9NSY1)	-0.348	-0.373
BLM_P54132_468_ELNFSHLPSNSVSPGDCLLTTTLGK (UniProt P54132)	-0.211	-0.141
BAG5_Q9UL15_157_ICAVQEIIEDCMK (UniProt Q9UL15)	0.0482	-0.0569
BLM_P54132_318_CLSTLK (UniProt P54132)	-0.0683	-0.0053
BCL10_O95999_57_EDTEEISCR (UniProt O95999)	0.104	0.15
BOD1L1_Q8NFC6_1947_DTDICSSAK (UniProt Q8NFC6)	-0.013	-0.235
BAZ1B_Q9UIG0_1420_QVFTNAEVYNCR (UniProt Q9UIG0)	0.172	0.044
BAG5_Q9UL15_157+166_ICAVQEIIEDCMK (UniProt Q9UL15)	0.312	0.174
ATXN2_Q99700_892_RGPEVTSQGVQTSSPACK (UniProt Q99700)	-0.0754	-0.146

Target	probe-labelled cysteine peptide fold change (10 µM)	probe-labelled cysteine peptide fold change (50 µM)
BCKDK_O14874_222_MLATHHLALHEDKPDFVGIICTR (UniProt O14874)	-0.00244	0.273
BCAT1_P54687_293_RCILDLAHQWGEFK (UniProt P54687)	-0.191	-0.0959
BIRC6_Q9NR09_4183_HAQCLLR (UniProt Q9NR09)	0.166	0.0697
BAZ1A_Q9NRL2_764_QEQINCVTR (UniProt Q9NRL2)	0.0723	-0.101
BAHCC1_Q9P281_683_GPGQSERPDCAR (UniProt Q9P281)	-0.0273	-0.0998
BPNT1_O95861_206_LVTDCVAAMNPDAVLR (UniProt O95861)	-0.0832	-0.0713
BLMH_Q13867_269_ICLVNDPRPQHK (UniProt Q13867)	0.137	0.13
BIN2_Q9UBW5_496_ENENIHNQNPEELCTSPTLMTSQVASEPGEAK (UniProt Q9UBW5)	-0.432	-0.111
BAIAP2_Q9UQB8_195_FCFLVEK (UniProt Q9UQB8)	-0.0569	-0.212
BIRC6_Q9NR09_463_RPTLAWLEDSSSCSDIPK (UniProt Q9NR09)	0.218	0.0776
BAZ1B_Q9UIG0_1228+1231_AFHLFCLRPALYEVPDGEWQCPACQPATAR (UniProt Q9UIG0)	0.129	0.0156
BLVRA_P53004_281_RILHCLGLAEEIQK (UniProt P53004)	-0.081	0.124
ATXN10_Q9UBB4_84_SSHAVELACRDPSQVENLASSLQLITECFR (UniProt Q9UBB4)	0.0704	0.131
BLVRA_P53004_281_ILHCLGLAEEIQK (UniProt P53004)	-0.116	-0.0536
BAP18_Q8IXM2_66_RFGDDLNHISCVIK (UniProt Q8IXM2)	-0.0617	-0.448
BANF1_O75531_77_DCFGCLR (UniProt O75531)	-0.192	0.0113
BAZ1A_Q9NRL2_537_SALSAVASLAAAWPQLHQGCSLK (UniProt Q9NRL2)	-0.0957	-0.232
BCAT1_P54687_221_GGTGDCK (UniProt P54687)	-0.0431	0.0305
ATXN7_O15265_347_EFDPDIHCGVIDLDTK (UniProt O15265)	-0.116	-0.13
BIRC6_Q9NR09_3108_AFHDMGGVQLICNNMVTSTR (UniProt Q9NR09)	0.248	-0.0924
BCLAF1_Q9NYF8_688_LRCDSADLR (UniProt Q9NYF8)	-0.15	-0.12

Target	probe-labelled cysteine peptide fold change (10 µM)	probe-labelled cysteine peptide fold change (50 µM)
BIRC2_Q13490_110_QLYPSCSFIQNLVSASLGSTSK (UniProt Q13490)	-0.408	-0.0694
BABAM2_Q9NXR7_245_IEHALGGSSALHIPAFPGGGCLIDYVPQVCHLLTNK (UniProt Q9NXR7)	0.185	-0.246
AXL_P30530_852_DSCSCLTAAEVHPAGR (UniProt P30530)	0.197	-0.0355
BLMH_Q13867_326_DGEAVWFGCDVGK (UniProt Q13867)	-0.0858	-0.0492
BLM_P54132_799_FVIDEAHCVSQWGHDFR (UniProt P54132)	0.0622	0.0557
BIRC6_Q9NR09_1319_CAMLQFSEFHEK (UniProt Q9NR09)	-0.0118	-0.161
BCL7C_Q8WUZ0_211_RICPNAPDP (UniProt Q8WUZ0)	-0.116	-0.0903
BAZ2A_Q9UIF9_1802_NHHSDLTFCEIILMEMESHDAAWPFLEPVNPR (UniProt Q9UIF9)	0.0252	-0.15
BLM_P54132_444_YRPDSLDGPMEGDSCPTGNSMK (UniProt P54132)	-0.0625	-0.266
BCOR_Q6W2J9_1311_QAQPSCAPASRPPAK (UniProt Q6W2J9)	-0.00663	-0.0365
BIRC6_Q9NR09_1357_TDDGQITEHAQSLVLDTLCWLAGVHSNGPGSSK (UniProt Q9NR09)	-0.0242	-0.0222
BDP1_A6H8Y1_2039_IVHECQELSSPVITTSPASFEENK (UniProt A6H8Y1)	-0.286	-0.339
BORCS6_Q96GS4_67_TSSCGVVHRPER (UniProt Q96GS4)	-0.031	-0.0929
BAG1_Q99933_330_VQAFLAECDTVEQNICQETER (UniProt Q99933)	0.508	-0.011
BPNT1_O95861_243_ASAYVFASPGCKK (UniProt O95861)	-0.283	-0.27
BIN2_Q9UBW5_205_IGCYVTIFQNISNLR (UniProt Q9UBW5)	0.21	0.194
BAZ1A_Q9NRL2_105_LHEICDDIFAYVK (UniProt Q9NRL2)	-0.0232	0.0588
BCL2L2_Q92843_29_GYVCGAGPGEGPAADPLHQAMR (UniProt Q92843)	0.24	-0.281
BOD1L1_Q8NFC6_1170_TCTADSK (UniProt Q8NFC6)	-0.0161	-0.0752
BARGIN_Q6ZT62_631_CGMTTVLTLTGVSR (UniProt Q6ZT62)	0.013	0.0424
BHLHE22_Q8NFJ8_156_GSVAESSGGEQSPDDDSDGRCELVLR (UniProt Q8NFJ8)	-0.163	-0.376

Target	probe-labelled cysteine peptide fold change (10 µM)	probe-labelled cysteine peptide fold change (50 µM)
BAG2_O95816_142_SHLMSLYSACSSEVPHGPVDQK (UniProt O95816)	0.257	0.0507
AXL_P30530_588_SELEDFLSEAVCMK (UniProt P30530)	0.132	0.0716
BORCS6_Q96GS4_356_TLEVLEALCK (UniProt Q96GS4)	0.0111	0.13
ATRX_P46100_1576_LKPHQVDGVQFMWDCCCESVK (UniProt P46100)	0.101	-0.0863
ATXN10_Q9UBB4_65_SSHAVELACR (UniProt Q9UBB4)	0.166	0.0371
BCAS2_O75934_132_IENLELMSQHGCNAWK (UniProt O75934)	-0.0127	-0.0991
BIRC6_Q9NR09_543_DLEELGANPCLTNSK (UniProt Q9NR09)	-0.178	-0.271
BIRC6_Q9NR09_381_GEHTQNVPLSVTLATSPAQFPCTDGTDR (UniProt Q9NR09)	0.0945	-0.0337
B4GALT3_O60512_119_YRPAGCEPR (UniProt O60512)	-0.106	0.182
BCKDHB_P21953_361_VCGYDTPFPHIFEPFYIPDK (UniProt P21953)	0.0222	-0.0397
BAZ1A_Q9NRL2_799_IQSAIACTNIFPLGR (UniProt Q9NRL2)	0.0381	0.0711
ATRX_P46100_235_WCAEGGNLICCDFCHNAFCK (UniProt P46100)	-0.0635	0.0409
BOP1_Q14137_690_YPLFASGSDDGSVIVCHGMVYNDLLQNPLLVPVK (UniProt Q14137)	0.0324	-0.00224
BMP2K_Q9NSY1_912_VNVQECHAVGPEAHTIPGYPK (UniProt Q9NSY1)	0.0239	-0.178
BMP2K_Q9NSY1_160_LQTGFTEPEVLQIFCDTCEAVAR (UniProt Q9NSY1)	-0.352	-0.0816
BIRC6_Q9NR09_3773_TAIENATVAFFLQCISCHPNNQK (UniProt Q9NR09)	0.0154	0.082
BCKDHB_P21953_228_GLLLSCIEDK (UniProt P21953)	0.0405	0.119
BCCIP_Q9P287_141_GTQCVEQIQELVLR (UniProt Q9P287)	0.0501	0.114
BAZ1B_Q9UIG0_1202_LILCDECNK (UniProt Q9UIG0)	0.0442	0.201
BAZ1B_Q9UIG0_1096_DFGECVIALQASVIK (UniProt Q9UIG0)	0.121	0.25
